In the supplement of paper PMC10849652:
The list shows a part of the results.

Amino acid sequences for entries named in this document (tags omitted). A change or cut given only in a name is not applied to a line headed by its entry.
UniProt Q9BV20: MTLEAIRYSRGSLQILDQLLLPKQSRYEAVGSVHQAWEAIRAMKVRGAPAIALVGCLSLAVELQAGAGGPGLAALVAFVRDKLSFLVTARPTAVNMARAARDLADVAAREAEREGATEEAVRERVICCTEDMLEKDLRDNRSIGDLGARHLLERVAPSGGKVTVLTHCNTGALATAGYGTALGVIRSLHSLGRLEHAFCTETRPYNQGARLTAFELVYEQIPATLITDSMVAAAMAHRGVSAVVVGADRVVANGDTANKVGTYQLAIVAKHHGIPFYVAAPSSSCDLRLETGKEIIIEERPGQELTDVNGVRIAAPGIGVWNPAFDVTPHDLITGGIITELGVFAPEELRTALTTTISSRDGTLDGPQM
UniProt Q5TGZ0: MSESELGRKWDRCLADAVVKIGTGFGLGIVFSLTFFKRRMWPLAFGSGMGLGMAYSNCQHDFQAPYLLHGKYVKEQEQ
UniProt Q9BUB5: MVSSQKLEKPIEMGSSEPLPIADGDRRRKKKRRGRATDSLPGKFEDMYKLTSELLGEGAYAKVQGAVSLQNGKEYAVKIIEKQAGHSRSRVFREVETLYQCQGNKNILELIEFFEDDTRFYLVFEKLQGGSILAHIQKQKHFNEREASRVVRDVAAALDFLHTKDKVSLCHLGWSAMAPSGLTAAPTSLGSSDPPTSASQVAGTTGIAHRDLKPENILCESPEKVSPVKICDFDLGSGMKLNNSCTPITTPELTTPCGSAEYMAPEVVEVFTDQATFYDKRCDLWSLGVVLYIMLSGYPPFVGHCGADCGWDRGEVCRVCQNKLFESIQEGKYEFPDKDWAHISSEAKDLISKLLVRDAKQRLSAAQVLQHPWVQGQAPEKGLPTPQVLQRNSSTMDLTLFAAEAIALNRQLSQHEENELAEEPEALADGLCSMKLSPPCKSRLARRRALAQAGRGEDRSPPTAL
UniProt Q7Z3K6: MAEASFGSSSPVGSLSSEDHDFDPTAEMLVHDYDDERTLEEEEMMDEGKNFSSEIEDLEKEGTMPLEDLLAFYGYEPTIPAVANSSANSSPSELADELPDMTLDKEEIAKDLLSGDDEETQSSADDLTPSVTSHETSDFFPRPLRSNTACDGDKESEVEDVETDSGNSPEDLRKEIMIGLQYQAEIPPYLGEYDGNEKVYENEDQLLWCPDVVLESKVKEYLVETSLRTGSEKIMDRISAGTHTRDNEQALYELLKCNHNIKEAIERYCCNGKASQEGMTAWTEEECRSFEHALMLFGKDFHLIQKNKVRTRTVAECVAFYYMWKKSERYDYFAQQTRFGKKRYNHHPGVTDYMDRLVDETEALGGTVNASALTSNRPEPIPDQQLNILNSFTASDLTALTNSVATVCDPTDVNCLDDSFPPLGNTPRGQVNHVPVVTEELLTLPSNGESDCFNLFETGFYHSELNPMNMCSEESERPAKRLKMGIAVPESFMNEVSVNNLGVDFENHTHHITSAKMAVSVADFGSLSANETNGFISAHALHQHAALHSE
UniProt Q9Y6X9: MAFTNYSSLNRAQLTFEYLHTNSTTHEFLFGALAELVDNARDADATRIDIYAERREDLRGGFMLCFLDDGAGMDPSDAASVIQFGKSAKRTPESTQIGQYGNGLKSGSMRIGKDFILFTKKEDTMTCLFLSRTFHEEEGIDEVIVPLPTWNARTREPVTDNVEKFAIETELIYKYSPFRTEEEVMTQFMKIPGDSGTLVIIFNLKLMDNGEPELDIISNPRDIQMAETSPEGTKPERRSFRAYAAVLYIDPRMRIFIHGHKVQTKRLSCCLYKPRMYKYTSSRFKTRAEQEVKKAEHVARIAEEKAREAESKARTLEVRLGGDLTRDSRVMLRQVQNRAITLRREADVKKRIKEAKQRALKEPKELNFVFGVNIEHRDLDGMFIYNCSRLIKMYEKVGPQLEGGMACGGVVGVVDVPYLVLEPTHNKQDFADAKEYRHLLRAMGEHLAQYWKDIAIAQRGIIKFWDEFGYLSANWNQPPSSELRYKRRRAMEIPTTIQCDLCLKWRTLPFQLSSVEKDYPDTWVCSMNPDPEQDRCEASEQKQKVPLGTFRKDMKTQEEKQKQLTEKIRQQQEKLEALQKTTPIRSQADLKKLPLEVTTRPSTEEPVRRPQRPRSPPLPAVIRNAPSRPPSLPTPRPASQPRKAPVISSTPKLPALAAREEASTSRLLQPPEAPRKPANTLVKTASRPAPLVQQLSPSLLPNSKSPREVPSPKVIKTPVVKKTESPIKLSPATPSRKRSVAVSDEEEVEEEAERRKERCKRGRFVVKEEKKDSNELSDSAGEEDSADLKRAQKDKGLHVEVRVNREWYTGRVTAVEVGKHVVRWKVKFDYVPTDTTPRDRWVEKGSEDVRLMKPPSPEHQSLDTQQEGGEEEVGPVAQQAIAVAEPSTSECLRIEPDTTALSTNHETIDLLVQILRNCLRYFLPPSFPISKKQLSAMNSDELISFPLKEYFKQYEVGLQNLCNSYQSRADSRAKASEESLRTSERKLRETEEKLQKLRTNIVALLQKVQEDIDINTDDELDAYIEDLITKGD
UniProt Q9NPA3, whole entry, looked up: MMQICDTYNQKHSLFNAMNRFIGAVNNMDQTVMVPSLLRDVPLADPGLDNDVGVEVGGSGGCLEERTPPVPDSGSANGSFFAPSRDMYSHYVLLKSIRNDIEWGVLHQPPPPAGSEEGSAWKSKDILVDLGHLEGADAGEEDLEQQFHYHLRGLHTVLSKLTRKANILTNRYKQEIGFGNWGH
UniProt Q10469: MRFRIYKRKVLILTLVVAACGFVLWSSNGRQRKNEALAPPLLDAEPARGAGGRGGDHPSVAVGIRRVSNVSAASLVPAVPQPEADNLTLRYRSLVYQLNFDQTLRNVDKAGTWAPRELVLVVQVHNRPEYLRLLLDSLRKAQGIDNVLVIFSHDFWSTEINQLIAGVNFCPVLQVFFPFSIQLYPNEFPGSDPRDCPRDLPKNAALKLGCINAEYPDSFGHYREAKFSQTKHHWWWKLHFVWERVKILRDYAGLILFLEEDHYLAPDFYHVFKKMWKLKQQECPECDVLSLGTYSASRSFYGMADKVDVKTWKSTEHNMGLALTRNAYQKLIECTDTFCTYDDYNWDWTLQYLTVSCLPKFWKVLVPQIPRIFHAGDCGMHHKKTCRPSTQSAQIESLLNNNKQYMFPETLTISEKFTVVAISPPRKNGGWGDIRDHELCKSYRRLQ
UniProt Q567V2: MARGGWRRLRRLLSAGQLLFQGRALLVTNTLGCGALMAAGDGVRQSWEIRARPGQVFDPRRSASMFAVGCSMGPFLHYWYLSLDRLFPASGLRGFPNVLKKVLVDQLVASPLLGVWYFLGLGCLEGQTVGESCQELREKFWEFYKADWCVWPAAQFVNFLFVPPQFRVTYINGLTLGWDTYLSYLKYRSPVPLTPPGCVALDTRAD
UniProt Q9H8M7: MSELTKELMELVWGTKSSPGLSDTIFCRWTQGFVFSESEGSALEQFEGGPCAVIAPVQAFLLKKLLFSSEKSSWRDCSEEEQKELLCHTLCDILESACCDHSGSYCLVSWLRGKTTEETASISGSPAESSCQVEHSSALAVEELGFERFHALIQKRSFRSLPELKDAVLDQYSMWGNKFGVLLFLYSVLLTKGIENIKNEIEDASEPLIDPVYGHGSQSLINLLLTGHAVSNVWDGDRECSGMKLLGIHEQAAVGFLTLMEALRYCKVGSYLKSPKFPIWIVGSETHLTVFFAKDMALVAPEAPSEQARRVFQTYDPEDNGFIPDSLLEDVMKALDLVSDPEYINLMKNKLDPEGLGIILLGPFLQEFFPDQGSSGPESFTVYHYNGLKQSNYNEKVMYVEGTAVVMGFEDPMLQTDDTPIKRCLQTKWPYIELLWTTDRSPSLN
UniProt Q9NV56, whole entry, looked up: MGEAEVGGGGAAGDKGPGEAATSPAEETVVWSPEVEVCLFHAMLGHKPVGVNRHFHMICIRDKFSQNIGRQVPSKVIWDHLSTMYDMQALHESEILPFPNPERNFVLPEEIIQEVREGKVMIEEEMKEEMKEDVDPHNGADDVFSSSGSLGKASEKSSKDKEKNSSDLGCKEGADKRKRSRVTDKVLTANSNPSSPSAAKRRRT
UniProt Q7L4E1: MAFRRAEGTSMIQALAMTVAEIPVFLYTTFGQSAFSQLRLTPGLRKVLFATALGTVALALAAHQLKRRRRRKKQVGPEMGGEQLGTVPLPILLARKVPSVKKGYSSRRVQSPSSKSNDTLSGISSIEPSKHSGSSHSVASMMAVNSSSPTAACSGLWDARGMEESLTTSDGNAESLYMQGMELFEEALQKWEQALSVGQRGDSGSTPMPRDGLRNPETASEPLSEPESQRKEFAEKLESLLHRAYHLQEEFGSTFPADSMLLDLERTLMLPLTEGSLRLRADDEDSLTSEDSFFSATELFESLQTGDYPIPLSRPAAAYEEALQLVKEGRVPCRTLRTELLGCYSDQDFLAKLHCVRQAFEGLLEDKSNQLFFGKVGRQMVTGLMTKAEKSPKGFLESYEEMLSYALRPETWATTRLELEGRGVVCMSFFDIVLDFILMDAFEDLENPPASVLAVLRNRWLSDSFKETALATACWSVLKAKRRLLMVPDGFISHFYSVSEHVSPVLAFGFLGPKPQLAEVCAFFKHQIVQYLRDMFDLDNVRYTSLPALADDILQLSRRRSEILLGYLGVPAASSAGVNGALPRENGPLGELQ
UniProt O94851, whole entry, looked up: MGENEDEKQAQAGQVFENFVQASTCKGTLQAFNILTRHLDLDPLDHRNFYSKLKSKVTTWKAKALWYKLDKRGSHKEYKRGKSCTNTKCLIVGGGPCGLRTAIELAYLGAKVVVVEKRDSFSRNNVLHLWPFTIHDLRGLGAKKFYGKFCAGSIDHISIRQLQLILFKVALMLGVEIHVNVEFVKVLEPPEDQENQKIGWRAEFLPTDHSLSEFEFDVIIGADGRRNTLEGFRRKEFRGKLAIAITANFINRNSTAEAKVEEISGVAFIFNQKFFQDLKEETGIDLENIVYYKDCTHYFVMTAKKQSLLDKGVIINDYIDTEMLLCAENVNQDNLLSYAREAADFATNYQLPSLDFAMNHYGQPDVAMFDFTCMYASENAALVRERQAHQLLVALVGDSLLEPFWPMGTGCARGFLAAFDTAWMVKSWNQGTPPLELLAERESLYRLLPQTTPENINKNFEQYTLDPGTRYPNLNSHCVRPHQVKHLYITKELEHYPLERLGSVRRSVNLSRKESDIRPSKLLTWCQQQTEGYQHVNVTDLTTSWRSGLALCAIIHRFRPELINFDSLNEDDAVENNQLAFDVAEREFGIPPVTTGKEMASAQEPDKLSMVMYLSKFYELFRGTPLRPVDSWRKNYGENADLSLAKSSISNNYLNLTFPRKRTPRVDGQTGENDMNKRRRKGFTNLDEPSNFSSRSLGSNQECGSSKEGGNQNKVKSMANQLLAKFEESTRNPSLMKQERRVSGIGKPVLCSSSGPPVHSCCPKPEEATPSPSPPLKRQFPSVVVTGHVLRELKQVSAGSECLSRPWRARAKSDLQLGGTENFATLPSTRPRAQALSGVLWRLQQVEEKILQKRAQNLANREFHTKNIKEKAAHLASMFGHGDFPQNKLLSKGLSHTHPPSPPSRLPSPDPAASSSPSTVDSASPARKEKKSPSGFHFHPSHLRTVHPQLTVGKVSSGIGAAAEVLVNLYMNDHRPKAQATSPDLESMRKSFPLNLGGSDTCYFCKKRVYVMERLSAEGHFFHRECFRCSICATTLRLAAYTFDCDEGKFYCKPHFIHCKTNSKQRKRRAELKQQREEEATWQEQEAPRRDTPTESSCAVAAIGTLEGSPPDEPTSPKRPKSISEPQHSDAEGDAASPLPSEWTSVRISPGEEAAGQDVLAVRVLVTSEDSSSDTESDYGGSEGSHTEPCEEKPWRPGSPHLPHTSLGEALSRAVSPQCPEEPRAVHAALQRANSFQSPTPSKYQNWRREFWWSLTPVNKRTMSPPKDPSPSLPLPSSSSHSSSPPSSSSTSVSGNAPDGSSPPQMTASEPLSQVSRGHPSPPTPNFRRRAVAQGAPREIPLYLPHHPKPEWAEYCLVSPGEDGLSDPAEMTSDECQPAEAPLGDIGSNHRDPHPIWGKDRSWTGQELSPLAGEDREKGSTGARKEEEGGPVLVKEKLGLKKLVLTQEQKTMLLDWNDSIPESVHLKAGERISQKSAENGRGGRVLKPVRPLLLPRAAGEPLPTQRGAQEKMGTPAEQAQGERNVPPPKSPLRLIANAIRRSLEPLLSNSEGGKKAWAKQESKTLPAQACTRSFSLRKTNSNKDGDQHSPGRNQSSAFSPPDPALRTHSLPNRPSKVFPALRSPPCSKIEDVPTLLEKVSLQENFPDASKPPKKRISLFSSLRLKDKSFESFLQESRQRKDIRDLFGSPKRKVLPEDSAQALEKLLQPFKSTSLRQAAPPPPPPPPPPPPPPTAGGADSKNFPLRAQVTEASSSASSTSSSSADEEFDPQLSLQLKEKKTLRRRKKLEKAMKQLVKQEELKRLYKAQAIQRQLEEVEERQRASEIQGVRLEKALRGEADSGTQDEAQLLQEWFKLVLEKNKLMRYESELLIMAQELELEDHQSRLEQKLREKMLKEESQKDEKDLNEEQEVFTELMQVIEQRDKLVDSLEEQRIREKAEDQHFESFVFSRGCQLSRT

Experiments:
Assay in all cases: log2 fold change, soluble protein after heating vs DMSO (PISA); higher = thermal stabilisation; K562 lysate, 10 uM; active = over 0.2 and 3.5 SD of the protein, either way, in both replicates (recomputed)
erlotinib = compound: C#Cc1cccc(Nc2ncnc3cc(OCCOC)c(OCCOC)cc23)c1 [erlotinib]
Summary of the method: (§1)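 Quantification was by TMTpro 16plex LC-MS/MS with equalised channel sums, applied to the supernatant after 21,000xg for 90 min. Samples were crude K562 extract at 1 mg/mL protein in PBS pH 7.4 with 1 mM MgCl2, treated with 10 μM compound for 30 min, heated for 3 min across 48°C-58°C, pooled and brought to 0.5% NP-40 at 4°C. Values are log-two fold changes in thermal stability relative to solvent controls, from duplicates.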

[1] = compound: C/C(=N\NC(=O)C1=CC(=CC=C1)S(=O)(=O)N2CCOCC2)/C3=C(C=CC(=C3)Cl)O
Summary of the method: as §1

[2] = compound: C1=CC(=CC=C1C2=NC3=C(N2)C=C(C=C3)C(=O)N)OC4=CC=C(C=C4)Cl
Summary of the method: as §1

[3] = compound: C1=CC2=C(C=CC(=C2)/C=C\3/C(=O)NC(=NCC4=CC=CS4)S3)N=C1
Summary of the method: as §1

[4] = compound: C1=CC2=NC=CN=C2C=C1/C=C/3\C(=O)NC(=O)S3
Summary of the method: as §1

[5] = compound: C1=CC=C(C=C1)C2=NC(=C(N2)C3=CC=NC=C3)C4=CC(=C(C=C4)Cl)O
Summary of the method: as §1

[6] = compound: C1=CC=C2C(=C1)C3=NNC4=CC=CC(=C43)C2=O
Summary of the method: as §1

[7] = compound: C1CCN(C1)C(=O)NC2=CC=CC(=C2)NC3=NC=C(C(=N3)NCCC4=CN=CN4)Br
Summary of the method: as §1

[8] = compound: C1CN(CCC1(CC2=CC=C(C=C2)Cl)N)C3=NC=NC4=C3C=CN4
Summary of the method: as §1

IRAK-1-4 Inhibitor I = compound: C1COCCN1CCN2C3=CC=CC=C3N=C2NC(=O)C4=CC(=CC=C4)[N+](=O)[O-] [IRAK-1-4 Inhibitor I]
Summary of the method: as §1

Measured: log2 fold change

MRE11 isoform 3 (UniProt P49959)
inactive: erlotinib -0.021 | [1] -0.036 | [2] 0.027 | [3] 0.024 | [4] -0.027 | [5] 0.004 | [6] -0.025 | [7] 0.001 | [8] 0.004 | IRAK-1-4 Inhibitor I -0.016

MRPL19 (UniProt P49406)
inactive: erlotinib 0.02 | [1] 0.079 | [2] -0.041 | [3] -0.003 | [4] -0.007 | [5] -0.032 | [6] -0.019 | [7] -0.014 | [8] 0.005 | IRAK-1-4 Inhibitor I 0

MRI1 (UniProt Q9BV20)
inactive: erlotinib -0.005 | [1] -0.008 | [2] 0.014 | [3] 0.015 | [4] 0.008 | [5] -0.013 | [6] -0.002 | [7] 0.015 | [8] -0.007 | IRAK-1-4 Inhibitor I 0.008

MKRN1 (UniProt Q9UHC7)
inactive: erlotinib -0.039 | [1] -0.037 | [2] -0.021 | [3] -0.079 | [4] 0.031 | [5] 0.034 | [6] -0.159 | [7] 0.002 | [8] -0.009 | IRAK-1-4 Inhibitor I 0.089

MICOS10 (UniProt Q5TGZ0)
inactive: erlotinib -0.057 | [1] 0.047 | [2] 0.001 | [3] -0.084 | [4] -0.06 | [5] 0.08 | [6] 0.025 | [7] 0.007 | [8] 0.051 | IRAK-1-4 Inhibitor I 0.003

MKNK1 (UniProt Q9BUB5)
inactive: erlotinib 0.079 | [1] 0.01 | [2] 0.017 | [3] 0.104 | [4] 0.004 | [5] -0.006 | [6] -0.014 | [7] 0.014 | [8] 0.068 | IRAK-1-4 Inhibitor I 0.048

MIER3 isoform 2 (UniProt Q7Z3K6)
inactive: erlotinib 0.085 | [1] -0.014 | [2] -0.065 | [3] -0.003 | [4] -0.114 | [5] 0.02 | [6] -0.059 | [7] -0.007 | [8] 0.001 | IRAK-1-4 Inhibitor I 0.024

MIEF1 (UniProt L0R8F8)
inactive: erlotinib 0.039 | [1] -0.077 | [2] 0.05 | [3] 0.024 | [4] -0.042 | [5] 0.028 | [6] 0.017 | [7] 0.017 | [8] 0.008 | IRAK-1-4 Inhibitor I 0.028

MICALL2 (UniProt Q8IY33)
inactive: erlotinib -0.041 | [1] -0.044 | [2] 0.003 | [3] -0.003 | [4] -0.033 | [5] -0.009 | [6] -0.005 | [7] -0.026 | [8] 0.009 | IRAK-1-4 Inhibitor I 0.016

2 successive entries from above, quoted:
MKNK1 (UniProt Q9BUB5)
inactive: erlotinib 0.079 | [1] 0.01 | [2] 0.017 | [3] 0.104 | [4] 0.004 | [5] -0.006 | [6] -0.014 | [7] 0.014 | [8] 0.068 | IRAK-1-4 Inhibitor I 0.048

MIER3 isoform 2 (UniProt Q7Z3K6)
inactive: erlotinib 0.085 | [1] -0.014 | [2] -0.065 | [3] -0.003 | [4] -0.114 | [5] 0.02 | [6] -0.059 | [7] -0.007 | [8] 0.001 | IRAK-1-4 Inhibitor I 0.024

(listing goes on)

MGME1 (UniProt Q9BQP7)
inactive: erlotinib 0 | [1] 0 | [2] 0.033 | [3] 0.017 | [4] -0.012 | [5] -0.007 | [6] -0.032 | [7] 0.006 | [8] -0.015 | IRAK-1-4 Inhibitor I 0.023

MRM3 (UniProt Q9HC36)
inactive: erlotinib 0.008 | [1] -0.025 | [2] 0 | [3] 0.006 | [4] -0.035 | [5] 0.024 | [6] 0.035 | [7] 0.003 | [8] 0.006 | IRAK-1-4 Inhibitor I -0.014

MRPL16 (UniProt Q9NX20)
inactive: erlotinib 0.054 | [1] -0.008 | [2] -0.024 | [3] 0.052 | [4] 0.104 | [5] -0.02 | [6] 0.053 | [7] 0 | [8] 0.113 | IRAK-1-4 Inhibitor I 0.026

MORC2 (UniProt Q9Y6X9)
inactive: erlotinib 0.039 | [1] -0.05 | [2] -0.002 | [3] 0.015 | [4] -0.016 | [5] -0.001 | [6] -0.033 | [7] 0.006 | [8] -0.023 | IRAK-1-4 Inhibitor I 0.034

MRM1 (UniProt Q6IN84)
inactive: erlotinib -0.04 | [1] 0.016 | [2] -0.037 | [3] 0.019 | [4] -0.008 | [5] -0.002 | [6] -0.017 | [7] 0.009 | [8] 0.024 | IRAK-1-4 Inhibitor I 0.084

MPHOSPH6 (UniProt Q99547)
inactive: erlotinib 0.012 | [1] -0.026 | [2] 0.024 | [3] -0.007 | [4] -0.028 | [5] -0.011 | [6] -0.02 | [7] -0.054 | [8] 0.006 | IRAK-1-4 Inhibitor I -0.036

MPC1 (UniProt Q9Y5U8)
inactive: erlotinib -0.056 | [1] -0.403 | [2] -0.119 | [3] -0.19 | [4] 0.035 | [5] 0.006 | [6] 0.296 | [7] -0.05 | [8] 0.086 | IRAK-1-4 Inhibitor I 0.051

MRPL20 (UniProt Q9BYC9)
inactive: erlotinib 0.046 | [1] 0.014 | [2] -0.092 | [3] -0.044 | [4] 0.057 | [5] -0.033 | [6] 0.11 | [7] 0.017 | [8] -0.096 | IRAK-1-4 Inhibitor I -0.013

MRPL12 (UniProt P52815)
inactive: erlotinib 0.046 | [1] -0.02 | [2] -0.013 | [3] 0.041 | [4] -0.015 | [5] -0.015 | [6] 0.014 | [7] -0.007 | [8] 0.077 | IRAK-1-4 Inhibitor I -0.029

MID1IP1 (UniProt Q9NPA3)
inactive: erlotinib -0.055 | [1] 0.008 | [2] 0.032 | [3] 0.021 | [4] 0.347 | [5] -0.008 | [6] -0.025 | [7] 0.02 | [8] 0.061 | IRAK-1-4 Inhibitor I -0.027

MGAT2 (UniProt Q10469)
inactive: erlotinib -0.004 | [1] 0.012 | [2] 0.037 | [3] -0.019 | [4] 0.014 | [5] 0.033 | [6] 0.083 | [7] -0.026 | [8] -0.049 | IRAK-1-4 Inhibitor I 0.001

MKI67 (UniProt P46013)
inactive: erlotinib 0 | [1] 0.044 | [2] 0.01 | [3] 0.026 | [4] -0.043 | [5] 0.034 | [6] -0.005 | [7] -0.016 | [8] -0.025 | IRAK-1-4 Inhibitor I 0.001

MRPL14 (UniProt Q6P1L8)
inactive: erlotinib 0.105 | [1] -0.051 | [2] -0.036 | [3] 0.001 | [4] -0.048 | [5] 0.075 | [6] 0.028 | [7] -0.018 | [8] 0.027 | IRAK-1-4 Inhibitor I -0.042

MPV17L2 (UniProt Q567V2)
inactive: erlotinib -0.03 | [1] 0.16 | [2] 0.114 | [3] -0.078 | [4] 0.042 | [5] 0.004 | [6] -0.184 | [7] 0.003 | [8] 0.039 | IRAK-1-4 Inhibitor I 0.094

MINDY3 (UniProt Q9H8M7)
inactive: erlotinib 0.011 | [1] 0.04 | [2] -0.097 | [3] -0.027 | [4] -0.026 | [5] 0.02 | [6] 0.035 | [7] -0.001 | [8] 0.02 | IRAK-1-4 Inhibitor I 0.002

MRGBP (UniProt Q9NV56)
inactive: erlotinib -0.055 | [1] -0.017 | [2] 0.023 | [3] 0.053 | [4] -0.032 | [5] 0.055 | [6] -0.039 | [7] 0.084 | [8] -0.01 | IRAK-1-4 Inhibitor I -0.038

MIGA2 (UniProt Q7L4E1)
inactive: erlotinib -0.013 | [2] -0.095 | [5] -0.033 | [7] 0.061 | [8] -0.204 | IRAK-1-4 Inhibitor I 0.063

MICAL2 (UniProt O94851)
inactive: erlotinib -0.07 | [1] 0.104 | [2] -0.14 | [3] 0.02 | [4] -0.205 | [5] 0.108 | [6] 0.01 | IRAK-1-4 Inhibitor I -0.034

MPDZ (UniProt O75970)
inactive: erlotinib -0.017 | [1] -0.061 | [2] -0.095 | [3] -0.273 | [5] -0.091 | [6] 0.004 | [7] -0.099 | [8] 0.108 | IRAK-1-4 Inhibitor I 0.149

MRNIP (UniProt Q6NTE8)
inactive: erlotinib -0.026 | [2] -0.039 | [4] 0.067 | [5] 0.068 | IRAK-1-4 Inhibitor I 0.075

MR1 (UniProt Q95460)
inactive: erlotinib 0.046 | [1] 0.1 | [2] -0.009 | [3] -0.057 | [4] 0.091 | [6] -0.06 | [7] 0.006 | [8] -0.057

MRPL18 (UniProt Q9H0U6)
inactive: [1] 0.015 | [3] 0.025 | [5] 0.052 | [6] -0.065 | [7] -0.063 | [8] -0.041 | IRAK-1-4 Inhibitor I -0.146
